Laboratory results reported in the supplement of paper PMC10849652.
The other results are listed elsewhere or left out.

Amino acid sequences for entries named in this document (tags omitted). A change or cut given only in a name is not applied to a line headed by its entry.
UniProt Q8NCW5: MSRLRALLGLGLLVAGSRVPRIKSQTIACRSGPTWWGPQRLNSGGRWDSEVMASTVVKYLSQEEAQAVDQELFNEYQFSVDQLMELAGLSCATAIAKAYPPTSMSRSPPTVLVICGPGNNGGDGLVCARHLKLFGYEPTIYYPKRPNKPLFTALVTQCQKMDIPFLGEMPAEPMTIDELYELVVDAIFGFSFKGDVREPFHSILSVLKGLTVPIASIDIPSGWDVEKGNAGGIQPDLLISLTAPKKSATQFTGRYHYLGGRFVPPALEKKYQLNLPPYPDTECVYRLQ
UniProt Q6XQN6: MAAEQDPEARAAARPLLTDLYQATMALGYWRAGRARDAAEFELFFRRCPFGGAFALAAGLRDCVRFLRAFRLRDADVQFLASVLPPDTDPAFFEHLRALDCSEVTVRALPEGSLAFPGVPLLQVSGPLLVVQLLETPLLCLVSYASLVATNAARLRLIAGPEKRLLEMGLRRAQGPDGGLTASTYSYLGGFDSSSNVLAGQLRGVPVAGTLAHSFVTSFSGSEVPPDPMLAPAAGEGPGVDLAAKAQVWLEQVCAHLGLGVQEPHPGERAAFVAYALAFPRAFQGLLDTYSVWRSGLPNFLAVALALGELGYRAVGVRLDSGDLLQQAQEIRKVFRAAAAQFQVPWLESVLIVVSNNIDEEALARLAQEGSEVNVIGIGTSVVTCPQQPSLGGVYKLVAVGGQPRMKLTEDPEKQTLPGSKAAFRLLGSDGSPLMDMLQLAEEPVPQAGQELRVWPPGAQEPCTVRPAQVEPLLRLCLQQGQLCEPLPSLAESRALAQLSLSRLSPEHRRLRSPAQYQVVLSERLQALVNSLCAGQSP
UniProt Q9UN36: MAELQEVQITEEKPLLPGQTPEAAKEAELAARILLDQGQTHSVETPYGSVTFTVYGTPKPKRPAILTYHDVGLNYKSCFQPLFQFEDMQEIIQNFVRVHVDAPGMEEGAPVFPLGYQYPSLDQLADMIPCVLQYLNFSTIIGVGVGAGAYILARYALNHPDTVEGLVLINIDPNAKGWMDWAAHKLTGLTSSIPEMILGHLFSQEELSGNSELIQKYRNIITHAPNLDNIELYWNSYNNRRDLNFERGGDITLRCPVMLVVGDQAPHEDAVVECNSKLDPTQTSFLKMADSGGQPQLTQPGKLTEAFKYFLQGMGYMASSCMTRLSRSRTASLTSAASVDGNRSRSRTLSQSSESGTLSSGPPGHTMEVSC
UniProt Q8NI08: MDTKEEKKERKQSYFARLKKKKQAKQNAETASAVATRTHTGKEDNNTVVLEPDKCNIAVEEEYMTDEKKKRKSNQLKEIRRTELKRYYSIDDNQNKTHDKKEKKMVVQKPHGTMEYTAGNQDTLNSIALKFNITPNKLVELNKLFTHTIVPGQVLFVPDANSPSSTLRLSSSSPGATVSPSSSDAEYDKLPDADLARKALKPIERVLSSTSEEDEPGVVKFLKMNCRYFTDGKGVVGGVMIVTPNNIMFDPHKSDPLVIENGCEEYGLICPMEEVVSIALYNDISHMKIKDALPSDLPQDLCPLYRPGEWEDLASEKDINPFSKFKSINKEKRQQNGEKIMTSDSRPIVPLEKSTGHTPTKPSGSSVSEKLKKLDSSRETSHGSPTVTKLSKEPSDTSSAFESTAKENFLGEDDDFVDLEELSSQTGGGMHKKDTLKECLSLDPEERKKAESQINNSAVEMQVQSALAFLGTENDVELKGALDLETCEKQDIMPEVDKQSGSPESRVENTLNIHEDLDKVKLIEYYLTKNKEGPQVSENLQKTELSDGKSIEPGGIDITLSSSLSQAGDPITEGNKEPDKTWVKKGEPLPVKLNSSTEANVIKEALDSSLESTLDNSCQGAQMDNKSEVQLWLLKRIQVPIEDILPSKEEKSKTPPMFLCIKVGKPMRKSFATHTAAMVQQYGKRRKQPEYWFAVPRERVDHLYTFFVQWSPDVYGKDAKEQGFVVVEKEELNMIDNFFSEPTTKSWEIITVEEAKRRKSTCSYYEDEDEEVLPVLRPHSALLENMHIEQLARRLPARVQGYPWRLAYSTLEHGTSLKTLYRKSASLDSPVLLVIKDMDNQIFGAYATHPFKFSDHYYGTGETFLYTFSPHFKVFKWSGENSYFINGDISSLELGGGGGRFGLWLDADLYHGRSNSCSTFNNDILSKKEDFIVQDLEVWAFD
UniProt Q86XI2: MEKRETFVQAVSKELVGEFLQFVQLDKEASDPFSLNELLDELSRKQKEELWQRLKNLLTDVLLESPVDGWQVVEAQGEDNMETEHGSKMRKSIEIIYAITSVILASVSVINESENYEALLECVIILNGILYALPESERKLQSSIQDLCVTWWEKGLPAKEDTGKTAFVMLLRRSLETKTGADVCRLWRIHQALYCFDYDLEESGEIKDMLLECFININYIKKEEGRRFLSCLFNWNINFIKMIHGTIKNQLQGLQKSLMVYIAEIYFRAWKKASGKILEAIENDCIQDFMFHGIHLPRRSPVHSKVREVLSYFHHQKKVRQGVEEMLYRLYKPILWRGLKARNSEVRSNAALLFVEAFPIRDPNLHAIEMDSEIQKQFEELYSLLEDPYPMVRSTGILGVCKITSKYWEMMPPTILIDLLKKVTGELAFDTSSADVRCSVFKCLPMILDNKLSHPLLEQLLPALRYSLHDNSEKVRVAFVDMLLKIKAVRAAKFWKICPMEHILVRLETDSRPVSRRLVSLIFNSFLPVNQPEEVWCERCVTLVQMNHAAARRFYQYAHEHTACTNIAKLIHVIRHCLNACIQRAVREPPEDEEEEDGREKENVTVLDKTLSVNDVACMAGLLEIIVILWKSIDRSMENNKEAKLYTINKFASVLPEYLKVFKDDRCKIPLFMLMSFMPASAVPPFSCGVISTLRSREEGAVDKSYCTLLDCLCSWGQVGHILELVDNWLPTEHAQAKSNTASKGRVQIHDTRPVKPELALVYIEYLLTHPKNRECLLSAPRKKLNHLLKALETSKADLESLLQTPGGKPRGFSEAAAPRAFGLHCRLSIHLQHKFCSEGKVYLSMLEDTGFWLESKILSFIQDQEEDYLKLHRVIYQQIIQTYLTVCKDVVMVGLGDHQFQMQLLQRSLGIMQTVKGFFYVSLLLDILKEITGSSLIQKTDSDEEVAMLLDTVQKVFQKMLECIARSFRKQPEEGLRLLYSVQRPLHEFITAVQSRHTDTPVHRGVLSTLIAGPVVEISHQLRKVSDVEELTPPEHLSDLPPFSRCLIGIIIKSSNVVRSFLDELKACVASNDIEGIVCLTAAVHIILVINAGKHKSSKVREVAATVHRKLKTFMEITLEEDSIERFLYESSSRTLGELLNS
UniProt O43776: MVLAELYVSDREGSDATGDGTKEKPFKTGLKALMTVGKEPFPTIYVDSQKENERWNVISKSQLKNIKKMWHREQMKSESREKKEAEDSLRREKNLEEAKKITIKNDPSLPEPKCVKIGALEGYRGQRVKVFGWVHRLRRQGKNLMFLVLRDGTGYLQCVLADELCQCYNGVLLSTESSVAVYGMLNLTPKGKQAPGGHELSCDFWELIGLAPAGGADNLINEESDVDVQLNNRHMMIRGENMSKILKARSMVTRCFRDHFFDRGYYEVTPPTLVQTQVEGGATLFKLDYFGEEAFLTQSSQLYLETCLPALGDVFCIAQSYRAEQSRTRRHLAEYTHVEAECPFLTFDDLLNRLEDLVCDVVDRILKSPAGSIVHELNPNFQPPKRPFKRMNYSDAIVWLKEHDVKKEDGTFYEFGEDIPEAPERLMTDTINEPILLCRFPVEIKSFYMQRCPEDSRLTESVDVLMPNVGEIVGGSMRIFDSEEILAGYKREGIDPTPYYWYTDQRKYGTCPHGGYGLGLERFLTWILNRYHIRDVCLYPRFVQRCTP
UniProt O75113: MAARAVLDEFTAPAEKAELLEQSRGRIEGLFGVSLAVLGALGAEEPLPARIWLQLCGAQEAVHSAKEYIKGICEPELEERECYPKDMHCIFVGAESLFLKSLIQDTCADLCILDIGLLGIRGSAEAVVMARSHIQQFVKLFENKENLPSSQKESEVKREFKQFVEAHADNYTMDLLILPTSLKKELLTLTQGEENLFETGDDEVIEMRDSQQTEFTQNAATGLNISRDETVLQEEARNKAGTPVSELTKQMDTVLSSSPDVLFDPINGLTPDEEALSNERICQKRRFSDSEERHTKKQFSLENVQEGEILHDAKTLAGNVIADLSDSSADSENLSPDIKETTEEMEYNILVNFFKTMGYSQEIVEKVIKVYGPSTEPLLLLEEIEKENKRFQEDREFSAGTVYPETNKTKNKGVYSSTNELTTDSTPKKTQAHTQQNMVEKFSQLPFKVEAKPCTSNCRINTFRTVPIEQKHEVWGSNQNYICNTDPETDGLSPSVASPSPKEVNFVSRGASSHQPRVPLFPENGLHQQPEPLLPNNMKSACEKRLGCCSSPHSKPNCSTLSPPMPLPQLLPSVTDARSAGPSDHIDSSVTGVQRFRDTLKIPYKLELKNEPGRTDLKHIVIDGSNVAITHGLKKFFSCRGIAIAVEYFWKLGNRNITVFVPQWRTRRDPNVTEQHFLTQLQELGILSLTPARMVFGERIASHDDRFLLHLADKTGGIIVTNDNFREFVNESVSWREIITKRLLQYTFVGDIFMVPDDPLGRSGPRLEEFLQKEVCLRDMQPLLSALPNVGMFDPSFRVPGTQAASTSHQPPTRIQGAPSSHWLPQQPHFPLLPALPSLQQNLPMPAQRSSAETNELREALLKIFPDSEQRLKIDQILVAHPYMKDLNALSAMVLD
UniProt Q99733: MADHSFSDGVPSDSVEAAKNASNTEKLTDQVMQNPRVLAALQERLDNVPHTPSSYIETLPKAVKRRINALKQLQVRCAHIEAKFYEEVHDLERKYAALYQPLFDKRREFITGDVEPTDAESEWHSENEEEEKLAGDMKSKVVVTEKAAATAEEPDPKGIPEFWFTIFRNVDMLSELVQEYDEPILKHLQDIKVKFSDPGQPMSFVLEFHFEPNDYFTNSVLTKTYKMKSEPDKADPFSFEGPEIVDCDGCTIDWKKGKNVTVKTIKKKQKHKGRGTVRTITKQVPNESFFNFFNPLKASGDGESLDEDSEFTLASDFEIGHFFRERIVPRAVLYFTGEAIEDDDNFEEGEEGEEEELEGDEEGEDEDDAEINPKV
UniProt Q96NT1: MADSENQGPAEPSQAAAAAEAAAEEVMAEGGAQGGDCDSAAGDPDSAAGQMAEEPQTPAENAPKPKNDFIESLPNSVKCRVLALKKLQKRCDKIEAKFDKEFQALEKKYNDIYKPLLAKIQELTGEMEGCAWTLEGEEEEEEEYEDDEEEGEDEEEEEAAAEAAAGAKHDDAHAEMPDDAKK
UniProt Q99747: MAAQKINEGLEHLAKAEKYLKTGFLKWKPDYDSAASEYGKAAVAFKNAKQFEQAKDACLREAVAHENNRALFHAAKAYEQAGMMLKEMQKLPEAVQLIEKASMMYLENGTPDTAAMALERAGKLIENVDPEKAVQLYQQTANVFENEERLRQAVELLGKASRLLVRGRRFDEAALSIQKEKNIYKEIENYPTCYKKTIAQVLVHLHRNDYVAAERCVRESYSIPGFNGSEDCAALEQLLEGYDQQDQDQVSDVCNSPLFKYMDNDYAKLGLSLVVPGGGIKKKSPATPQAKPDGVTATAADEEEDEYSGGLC
UniProt P17568, whole entry, looked up: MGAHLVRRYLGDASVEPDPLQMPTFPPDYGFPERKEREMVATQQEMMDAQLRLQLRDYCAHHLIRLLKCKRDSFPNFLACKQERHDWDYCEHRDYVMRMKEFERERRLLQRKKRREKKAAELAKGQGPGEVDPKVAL
UniProt Q9BU61: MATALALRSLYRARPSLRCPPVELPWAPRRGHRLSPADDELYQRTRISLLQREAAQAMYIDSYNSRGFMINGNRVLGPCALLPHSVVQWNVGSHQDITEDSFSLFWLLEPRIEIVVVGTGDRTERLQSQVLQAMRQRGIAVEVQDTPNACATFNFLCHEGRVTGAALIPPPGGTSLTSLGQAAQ
UniProt Q9NX14, whole entry, looked up: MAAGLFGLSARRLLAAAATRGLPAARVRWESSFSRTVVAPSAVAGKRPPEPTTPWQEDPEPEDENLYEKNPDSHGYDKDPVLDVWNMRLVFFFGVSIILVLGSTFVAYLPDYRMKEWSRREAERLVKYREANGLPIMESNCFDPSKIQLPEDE
UniProt Q69YL0: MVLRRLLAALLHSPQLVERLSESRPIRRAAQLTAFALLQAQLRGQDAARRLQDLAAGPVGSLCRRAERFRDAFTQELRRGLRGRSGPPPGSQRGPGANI

Tests used:
Assay in all cases: log2 fold change, soluble protein after heating vs DMSO (PISA); higher = thermal stabilisation; K562 cells, 10 uM, 30 min; active = over 0.2 and 3.5 SD of the protein, either way, in both replicates (recomputed)
[1] = compound: COC1=CC=C(C=C1)CN2C=CC3=C2C=C(C=C3)C(=O)NO
Method in brief: (§1)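 Values are thermal stability changes relative to control samples and are taken from duplicates. They are stated as log2 fold changes. Before quantification by TMTpro 16plex LC-MS/MS with equalised channel sums, K562 cells at 2×10^6 cells/mL were treated with 10 μM compound for 30 min, heated in aliquots for 3 min across 48°C-58°C, pooled, extracted in PBS with 0.5% NP-40 at 4°C, and centrifuged at 21,000xg for 90 min to give the soluble supernatant.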

filanesib = compound: CON(C)C(=O)N1N=C(c2cc(F)ccc2F)S[C@@]1(CCCN)c1ccccc1 [filanesib]
Method in brief: as §1

zotarolimus = compound: CO[C@H]1C[C@@H]2CC[C@@H](C)[C@@](O)(O2)C(=O)C(=O)N2CCCC[C@H]2C(=O)O[C@H]([C@H](C)C[C@@H]2CC[C@H](n3cnnn3)[C@H](OC)C2)CC(=O)[C@H](C)/C=C(\C)[C@@H](O)[C@@H](OC)C(=O)[C@H](C)C[C@H](C)/C=C/C=C/C=C/1C [zotarolimus]
Method in brief: as §1

idasanutlin = compound: COc1cc(C(=O)O)ccc1NC(=O)[C@@H]1N[C@@H](CC(C)(C)C)[C@](C#N)(c2ccc(Cl)cc2F)[C@H]1c1cccc(Cl)c1F [idasanutlin]
Method in brief: as §1

alisertib = compound: COc1cc(Nc2ncc3c(n2)-c2ccc(Cl)cc2C(c2c(F)cccc2OC)=NC3)ccc1C(=O)O [alisertib]
Method in brief: as §1

[2] = compound: COc1cc2nc(-c3cc(F)ccc3O)nc(N[C@@H]3CNC[C@H]3C(C)(C)O)c2cc1OC
Method in brief: as §1

gefitinib = compound: COc1cc2ncnc(Nc3ccc(F)c(Cl)c3)c2cc1OCCCN1CCOCC1 [gefitinib]
Method in brief: as §1

[3] = compound: COc1cccc2cc(-c3nc([C@H]4CC[C@H](C(=O)O)CC4)n4ncnc(N)c34)[nH]c12
Method in brief: as §1

lapatinib = compound: CS(=O)(=O)CCNCc1ccc(-c2ccc3ncnc(Nc4ccc(OCc5cccc(F)c5)c(Cl)c4)c3c2)o1 [lapatinib]
Method in brief: as §1

pictilisib = compound: CS(=O)(=O)N1CCN(Cc2cc3nc(-c4cccc5[nH]ncc45)nc(N4CCOCC4)c3s2)CC1 [pictilisib]
Method in brief: as §1

Target | log2 fold change [1] | log2 fold change (filanesib) | log2 fold change (zotarolimus) | log2 fold change (idasanutlin) | log2 fold change (alisertib) | log2 fold change [2] | log2 fold change (gefitinib) | log2 fold change [3] | log2 fold change (lapatinib) | log2 fold change (pictilisib)
NAXE (UniProt Q8NCW5) | inactive: 0.047 | inactive: -0.027 | inactive: 0.057 | inactive: -0.038 | inactive: -0.028 | inactive: 0.017 | inactive: 0.003 | inactive: 0.041 | inactive: -0.015 | inactive: 0.026
NAPRT (UniProt Q6XQN6) | inactive: -0.034 | inactive: -0.018 | inactive: 0.02 | inactive: -0.016 | inactive: -0.042 | inactive: 0.076 | inactive: 0.008 | inactive: 0.065 | inactive: -0.014 | inactive: 0.11
NDRG2 (UniProt Q9UN36) | inactive: 0.044 | inactive: -0.014 | inactive: 0.028 | inactive: -0.023 | inactive: -0.011 | inactive: 0.007 | inactive: 0.006 | inactive: 0.026 | inactive: -0.02 | inactive: 0.002
NCOA7 (UniProt Q8NI08) | inactive: -0.043 | inactive: -0.046 | inactive: 0.035 | inactive: -0.034 | inactive: -0.034 | inactive: 0.043 | inactive: -0.014 | inactive: 0.014 | inactive: 0.01 | inactive: -0.045
NCAPG2 isoform 2 (UniProt Q86XI2) | inactive: -0.099 | inactive: 0.152 | inactive: -0.062 | inactive: 0.058 | inactive: -0.012 | inactive: 0.177 | inactive: -0.15 | inactive: -0.069 | inactive: -0.029 | inactive: -0.037
NARS1 (UniProt O43776) | inactive: -0.02 | inactive: 0.016 | inactive: -0.002 | inactive: 0.059 | inactive: -0.031 | inactive: 0.009 | inactive: -0.005 | inactive: 0.022 | inactive: -0.038 | inactive: 0
NDUFAB1 (UniProt O14561) | inactive: 0.009 | inactive: 0.118 | inactive: 0.161 | inactive: 0.056 | inactive: -0.09 |  | inactive: -0.006 | inactive: 0.031 |  | inactive: 0.121
N4BP1 (UniProt O75113) | inactive: 0.098 | inactive: 0.081 | inactive: 0.171 | inactive: 0.005 | inactive: 0.184 | inactive: 0.237 | inactive: 0.044 | inactive: -0.06 | inactive: -0.046 | inactive: 0.138
NA, A0A2R8Y3M9 | inactive: -0.086 | inactive: 0.079 | inactive: -0.419 | inactive: 0.279 |  | inactive: -0.123 | inactive: -0.168 |  | inactive: -0.037 | inactive: -0.35
NAP1L4 isoform 2 (UniProt Q99733) | inactive: -0.014 | inactive: 0.026 | inactive: 0.018 | inactive: -0.036 | inactive: -0.031 | inactive: 0.056 | inactive: 0.001 | inactive: -0.002 | inactive: 0.037 | inactive: 0.048
NAP1L5 (UniProt Q96NT1) | inactive: 0 | inactive: -0.023 | inactive: -0.003 | inactive: 0.09 | inactive: -0.005 | inactive: 0.072 | inactive: -0.006 | inactive: 0.017 | inactive: 0.034 | inactive: -0.055
NAPG (UniProt Q99747) | inactive: 0.046 | inactive: -0.046 | inactive: 0.052 | inactive: -0.001 | inactive: -0.005 | inactive: -0.066 | inactive: 0.025 | inactive: -0.089 | inactive: 0.029 | inactive: -0.008
NDUFB7 (UniProt P17568) | inactive: -0.011 | inactive: -0.023 | inactive: -0.03 | inactive: -0.025 | inactive: -0.051 | inactive: -0.077 | inactive: 0 | inactive: 0.002 | inactive: -0.013 | inactive: -0.066
NDUFAF3 (UniProt Q9BU61) | inactive: 0.012 | inactive: -0.163 | inactive: 0.016 | inactive: -0.088 | inactive: -0.028 | inactive: -0.077 | inactive: 0.01 | inactive: 0.06 | inactive: 0.068 | inactive: 0.075
NDUFB11 isoform 2 (UniProt Q9NX14) | inactive: 0.026 | inactive: -0.065 | inactive: 0.029 | inactive: -0.045 | inactive: -0.011 | inactive: -0.099 | inactive: -0.014 | inactive: 0.017 | inactive: 0.006 | inactive: -0.003
NCOR2 (UniProt C9J0Q5) | inactive: -0.059 | inactive: 0.04 | inactive: -0.044 | inactive: -0.032 | inactive: -0.047 | inactive: 0.031 | inactive: 0.021 | inactive: 0.153 | inactive: 0.01 | inactive: 0.047
NCBP2AS2 (UniProt Q69YL0) |  | inactive: -0.09 | inactive: -0.051 | inactive: -0.023 | inactive: -0.058 | active: -0.42 | inactive: -0.137 | inactive: 0.044 | inactive: -0.093 | inactive: 0.033

Just log2 fold change [2], for some of the entries so far:
Target	log2 fold change [2]
NCOA7 (UniProt Q8NI08)	inactive: 0.043
NARS1 (UniProt O43776)	inactive: 0.009
